# The list shows a part of the results.
# By UniProt entry, the sequences of proteins in these tests, tags left out. Where a name states a change or a piece, a line headed by the entry shows the natural chain unless it says otherwise.
# UniProt P01137, whole entry: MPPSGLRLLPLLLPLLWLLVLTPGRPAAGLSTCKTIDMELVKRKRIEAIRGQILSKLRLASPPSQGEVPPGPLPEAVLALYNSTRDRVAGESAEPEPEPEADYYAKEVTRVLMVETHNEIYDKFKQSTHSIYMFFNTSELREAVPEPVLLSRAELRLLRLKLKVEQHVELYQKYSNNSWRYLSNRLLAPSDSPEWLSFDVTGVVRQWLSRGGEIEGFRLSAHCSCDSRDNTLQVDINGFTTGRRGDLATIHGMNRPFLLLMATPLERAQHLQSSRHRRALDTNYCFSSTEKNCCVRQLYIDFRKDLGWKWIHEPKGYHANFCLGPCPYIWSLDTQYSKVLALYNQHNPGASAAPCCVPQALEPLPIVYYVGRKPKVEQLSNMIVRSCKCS
# UniProt Q96FJ0: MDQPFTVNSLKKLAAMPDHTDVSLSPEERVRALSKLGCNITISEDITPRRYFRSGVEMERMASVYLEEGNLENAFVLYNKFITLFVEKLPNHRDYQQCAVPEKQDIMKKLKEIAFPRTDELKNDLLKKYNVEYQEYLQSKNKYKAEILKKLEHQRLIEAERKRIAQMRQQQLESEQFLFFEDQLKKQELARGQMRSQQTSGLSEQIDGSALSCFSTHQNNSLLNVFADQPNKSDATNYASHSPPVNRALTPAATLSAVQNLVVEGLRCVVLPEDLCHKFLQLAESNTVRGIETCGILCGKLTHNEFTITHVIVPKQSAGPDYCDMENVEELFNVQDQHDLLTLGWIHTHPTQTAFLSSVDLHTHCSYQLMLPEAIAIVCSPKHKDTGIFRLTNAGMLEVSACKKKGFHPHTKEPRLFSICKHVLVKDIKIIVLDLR
# UniProt Q13188: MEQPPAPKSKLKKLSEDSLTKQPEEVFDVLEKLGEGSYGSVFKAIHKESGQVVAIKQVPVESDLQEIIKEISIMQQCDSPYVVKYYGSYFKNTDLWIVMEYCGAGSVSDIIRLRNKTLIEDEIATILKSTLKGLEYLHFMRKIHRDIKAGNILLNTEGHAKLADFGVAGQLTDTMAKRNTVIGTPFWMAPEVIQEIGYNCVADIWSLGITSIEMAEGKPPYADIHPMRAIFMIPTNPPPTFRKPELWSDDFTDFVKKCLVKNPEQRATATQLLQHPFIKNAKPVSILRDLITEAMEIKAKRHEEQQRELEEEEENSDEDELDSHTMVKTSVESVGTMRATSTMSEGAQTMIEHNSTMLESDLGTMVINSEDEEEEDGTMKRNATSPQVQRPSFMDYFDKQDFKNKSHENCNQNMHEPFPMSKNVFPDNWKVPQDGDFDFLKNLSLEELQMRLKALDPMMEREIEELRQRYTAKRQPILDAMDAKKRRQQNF
# UniProt O14776: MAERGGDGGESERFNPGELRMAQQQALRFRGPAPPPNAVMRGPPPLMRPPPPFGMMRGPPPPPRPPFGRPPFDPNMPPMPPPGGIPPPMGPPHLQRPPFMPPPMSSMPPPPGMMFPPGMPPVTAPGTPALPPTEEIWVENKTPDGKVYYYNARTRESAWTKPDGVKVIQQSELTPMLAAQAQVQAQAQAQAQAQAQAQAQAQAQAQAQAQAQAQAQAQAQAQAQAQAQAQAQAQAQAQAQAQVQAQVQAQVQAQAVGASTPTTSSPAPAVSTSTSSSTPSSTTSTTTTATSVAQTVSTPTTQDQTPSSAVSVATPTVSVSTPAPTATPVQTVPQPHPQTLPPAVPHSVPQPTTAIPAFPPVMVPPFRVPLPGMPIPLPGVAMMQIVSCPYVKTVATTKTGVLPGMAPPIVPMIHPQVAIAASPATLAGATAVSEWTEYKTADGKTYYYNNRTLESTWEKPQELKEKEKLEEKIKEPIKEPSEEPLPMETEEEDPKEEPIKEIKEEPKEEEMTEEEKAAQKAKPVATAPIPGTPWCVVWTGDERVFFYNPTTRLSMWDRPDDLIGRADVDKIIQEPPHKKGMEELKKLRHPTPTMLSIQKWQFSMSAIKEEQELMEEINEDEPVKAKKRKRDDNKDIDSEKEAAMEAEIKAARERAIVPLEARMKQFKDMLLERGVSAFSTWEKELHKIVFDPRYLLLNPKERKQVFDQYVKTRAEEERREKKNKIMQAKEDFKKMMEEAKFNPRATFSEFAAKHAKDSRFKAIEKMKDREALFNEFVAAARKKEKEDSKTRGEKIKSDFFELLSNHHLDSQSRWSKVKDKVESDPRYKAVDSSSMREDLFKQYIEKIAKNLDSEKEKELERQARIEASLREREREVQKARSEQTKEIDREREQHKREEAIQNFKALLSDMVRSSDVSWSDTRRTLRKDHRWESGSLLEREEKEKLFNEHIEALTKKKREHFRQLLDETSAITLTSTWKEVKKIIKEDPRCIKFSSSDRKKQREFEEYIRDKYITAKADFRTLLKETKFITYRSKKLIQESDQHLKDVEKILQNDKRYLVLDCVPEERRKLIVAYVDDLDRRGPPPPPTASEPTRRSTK
# UniProt Q9NU19: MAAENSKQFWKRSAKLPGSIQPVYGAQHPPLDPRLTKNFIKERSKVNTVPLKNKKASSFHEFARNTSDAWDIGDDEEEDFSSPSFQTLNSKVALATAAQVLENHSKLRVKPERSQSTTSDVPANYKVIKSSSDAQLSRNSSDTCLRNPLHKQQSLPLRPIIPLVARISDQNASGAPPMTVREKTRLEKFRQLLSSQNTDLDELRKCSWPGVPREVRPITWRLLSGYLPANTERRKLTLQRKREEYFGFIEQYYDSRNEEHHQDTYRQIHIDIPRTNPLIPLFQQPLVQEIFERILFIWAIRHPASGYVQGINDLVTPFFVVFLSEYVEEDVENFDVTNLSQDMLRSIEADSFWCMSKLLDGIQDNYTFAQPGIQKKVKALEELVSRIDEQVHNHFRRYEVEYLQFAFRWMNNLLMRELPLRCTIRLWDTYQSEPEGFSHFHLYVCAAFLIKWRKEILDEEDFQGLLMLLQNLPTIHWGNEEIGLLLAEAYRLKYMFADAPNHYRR
# UniProt P30626: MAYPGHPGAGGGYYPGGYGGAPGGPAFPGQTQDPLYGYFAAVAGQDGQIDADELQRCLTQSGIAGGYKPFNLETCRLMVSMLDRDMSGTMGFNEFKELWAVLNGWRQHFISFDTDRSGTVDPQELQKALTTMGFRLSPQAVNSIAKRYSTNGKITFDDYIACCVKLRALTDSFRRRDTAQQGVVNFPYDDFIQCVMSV
# UniProt O15400: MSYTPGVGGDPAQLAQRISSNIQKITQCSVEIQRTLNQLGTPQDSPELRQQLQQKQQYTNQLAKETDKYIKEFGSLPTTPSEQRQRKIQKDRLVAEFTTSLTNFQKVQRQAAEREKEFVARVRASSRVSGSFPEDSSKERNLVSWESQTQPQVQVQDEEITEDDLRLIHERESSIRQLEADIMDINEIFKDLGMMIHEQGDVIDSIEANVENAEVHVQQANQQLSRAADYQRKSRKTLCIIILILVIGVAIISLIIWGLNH
# UniProt Q9UNE7: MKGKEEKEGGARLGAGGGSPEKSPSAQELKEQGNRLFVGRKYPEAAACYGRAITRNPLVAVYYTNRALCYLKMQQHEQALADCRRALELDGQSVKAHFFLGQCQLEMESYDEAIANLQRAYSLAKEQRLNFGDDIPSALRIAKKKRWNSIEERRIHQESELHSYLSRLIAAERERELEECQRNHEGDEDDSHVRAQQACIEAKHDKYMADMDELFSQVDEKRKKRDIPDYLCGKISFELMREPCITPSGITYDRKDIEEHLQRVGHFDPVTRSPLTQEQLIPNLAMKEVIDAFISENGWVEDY
# UniProt Q9H5Q4: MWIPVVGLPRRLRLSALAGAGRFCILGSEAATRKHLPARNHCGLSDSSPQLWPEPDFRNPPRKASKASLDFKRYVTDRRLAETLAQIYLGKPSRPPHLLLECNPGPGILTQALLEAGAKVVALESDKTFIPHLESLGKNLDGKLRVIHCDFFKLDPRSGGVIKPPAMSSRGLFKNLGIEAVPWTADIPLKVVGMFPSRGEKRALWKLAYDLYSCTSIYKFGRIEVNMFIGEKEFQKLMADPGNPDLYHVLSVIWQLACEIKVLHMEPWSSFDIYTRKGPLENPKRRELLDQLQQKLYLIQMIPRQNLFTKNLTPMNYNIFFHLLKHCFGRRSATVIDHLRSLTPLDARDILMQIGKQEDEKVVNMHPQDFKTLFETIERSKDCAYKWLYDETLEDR
# UniProt O60271: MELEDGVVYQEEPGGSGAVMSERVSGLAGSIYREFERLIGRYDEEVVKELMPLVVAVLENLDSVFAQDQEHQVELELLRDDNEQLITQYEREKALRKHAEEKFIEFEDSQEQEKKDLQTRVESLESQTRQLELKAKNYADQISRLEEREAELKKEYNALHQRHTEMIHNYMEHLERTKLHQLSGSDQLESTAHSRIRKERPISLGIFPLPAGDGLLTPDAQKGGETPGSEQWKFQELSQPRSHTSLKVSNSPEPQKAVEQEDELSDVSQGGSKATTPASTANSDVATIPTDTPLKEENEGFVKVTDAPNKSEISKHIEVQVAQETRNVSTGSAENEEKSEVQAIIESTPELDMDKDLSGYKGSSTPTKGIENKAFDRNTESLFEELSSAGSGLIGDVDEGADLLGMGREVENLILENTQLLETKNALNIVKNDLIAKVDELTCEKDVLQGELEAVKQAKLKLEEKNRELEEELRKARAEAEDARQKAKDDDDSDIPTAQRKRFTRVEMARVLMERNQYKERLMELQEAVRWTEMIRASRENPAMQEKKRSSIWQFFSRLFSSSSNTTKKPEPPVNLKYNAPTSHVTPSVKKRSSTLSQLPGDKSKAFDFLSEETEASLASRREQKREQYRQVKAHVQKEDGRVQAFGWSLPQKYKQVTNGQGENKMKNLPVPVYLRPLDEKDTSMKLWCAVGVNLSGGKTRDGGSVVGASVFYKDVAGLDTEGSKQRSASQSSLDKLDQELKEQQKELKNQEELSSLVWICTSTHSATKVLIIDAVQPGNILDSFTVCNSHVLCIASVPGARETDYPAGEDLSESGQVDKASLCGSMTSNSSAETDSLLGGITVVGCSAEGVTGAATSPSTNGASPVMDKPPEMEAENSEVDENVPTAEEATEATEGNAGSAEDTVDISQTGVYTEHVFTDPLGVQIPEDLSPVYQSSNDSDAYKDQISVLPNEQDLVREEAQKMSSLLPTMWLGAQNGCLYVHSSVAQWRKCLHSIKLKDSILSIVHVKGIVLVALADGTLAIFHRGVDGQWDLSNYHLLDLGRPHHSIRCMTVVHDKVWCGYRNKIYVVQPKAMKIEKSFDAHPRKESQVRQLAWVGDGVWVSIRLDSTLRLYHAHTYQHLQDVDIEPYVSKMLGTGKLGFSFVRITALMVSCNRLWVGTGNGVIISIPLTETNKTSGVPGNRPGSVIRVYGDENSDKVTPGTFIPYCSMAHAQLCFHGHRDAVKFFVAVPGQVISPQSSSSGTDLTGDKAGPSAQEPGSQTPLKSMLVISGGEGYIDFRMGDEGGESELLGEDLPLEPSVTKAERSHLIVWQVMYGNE
# UniProt P46977: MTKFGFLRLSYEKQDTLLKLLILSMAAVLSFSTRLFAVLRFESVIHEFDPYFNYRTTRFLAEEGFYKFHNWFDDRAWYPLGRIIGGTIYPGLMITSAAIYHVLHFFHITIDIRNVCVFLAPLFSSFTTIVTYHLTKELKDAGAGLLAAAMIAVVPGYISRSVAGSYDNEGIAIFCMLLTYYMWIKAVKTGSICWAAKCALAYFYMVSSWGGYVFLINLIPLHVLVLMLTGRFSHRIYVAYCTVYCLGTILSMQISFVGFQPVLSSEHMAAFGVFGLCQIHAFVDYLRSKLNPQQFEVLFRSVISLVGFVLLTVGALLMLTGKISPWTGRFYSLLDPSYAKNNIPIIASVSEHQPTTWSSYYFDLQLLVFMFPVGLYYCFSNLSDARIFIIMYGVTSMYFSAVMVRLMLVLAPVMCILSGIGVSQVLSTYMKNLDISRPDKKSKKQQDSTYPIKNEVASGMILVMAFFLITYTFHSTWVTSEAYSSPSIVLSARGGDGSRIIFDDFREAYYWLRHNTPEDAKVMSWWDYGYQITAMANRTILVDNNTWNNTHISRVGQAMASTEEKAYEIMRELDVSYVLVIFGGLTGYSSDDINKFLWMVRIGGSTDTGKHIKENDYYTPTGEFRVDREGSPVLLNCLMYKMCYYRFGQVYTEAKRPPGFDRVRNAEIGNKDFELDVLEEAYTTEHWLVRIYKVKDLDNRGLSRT
# UniProt Q9H7L9: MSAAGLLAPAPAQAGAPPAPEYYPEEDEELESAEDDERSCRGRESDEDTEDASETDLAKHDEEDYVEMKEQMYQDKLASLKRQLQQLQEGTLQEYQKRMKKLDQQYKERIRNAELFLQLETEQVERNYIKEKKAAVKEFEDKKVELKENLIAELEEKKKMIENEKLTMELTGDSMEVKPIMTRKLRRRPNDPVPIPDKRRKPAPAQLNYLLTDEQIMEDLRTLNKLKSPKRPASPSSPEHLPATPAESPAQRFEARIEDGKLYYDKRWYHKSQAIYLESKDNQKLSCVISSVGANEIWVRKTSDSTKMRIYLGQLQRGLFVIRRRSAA
# Compound: COc1ccc(Cn2ccc3cc(C)c(C(=O)NO)cc32)cc1
# Experiment: dose-dependent thermal stabilisation call (2D-TPP, DLPTP, 10% FDR) (binary (1 = stabilised)); higher = stabilised by the compound
# Conditions: system: HL-60 intact cells; concentration range 0.04-10 µM
# Protocol: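 2D thermal proteome profiling in intact HL-60 cells treated with BRD-3811 (0, 0.04, 0.29, 2, 10 uM) for 90 min at 37 C, then heated 3 min at one of 12 temperatures (42-63.9 C). Soluble protein was quantified by TMT10 MS. The value is the DLPTP call of the paper: dose-dependent thermal stabilisation over all temperatures at 10% FDR (F-test of a dose-response against a flat model); one experiment, one call per tested protein.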
row,Target,dose-dependent thermal stabilisation call
1,TANC2 (UniProt Q9HCD6),inactive: 0
2,SRGAP2 (UniProt O75044),inactive: 0
3,TBCB (UniProt Q99426),inactive: 0
4,TCOF1 (UniProt Q13428),inactive: 0
5,ST7 (UniProt Q9NRC1),inactive: 0
6,SPRY2 (UniProt O43597),inactive: 0
7,STBD1 (UniProt O95210),inactive: 0
8,TGFB1 (UniProt P01137),inactive: 0
9,STAG1 (UniProt Q8WVM7),inactive: 0
10,STAMBPL1 (UniProt Q96FJ0),inactive: 0
11,STK3 (UniProt Q13188),inactive: 0
12,TH1L (UniProt Q8IXH7),inactive: 0
13,TCERG1 (UniProt O14776),inactive: 0
14,STK39 (UniProt Q9UEW8),inactive: 0
15,TBC1D22B (UniProt Q9NU19),inactive: 0
16,TCEA2 (UniProt Q15560),inactive: 0
17,SRI (UniProt P30626),inactive: 0
18,TGM3 (UniProt Q08188),inactive: 0
19,STX7 (UniProt O15400),inactive: 0
20,STRADA (UniProt Q7RTN6),inactive: 0

row,Target,dose-dependent thermal stabilisation call
1,SOS1 (UniProt Q07889),inactive: 0
2,SQSTM1 (UniProt Q13501),inactive: 0
3,STAT5B (UniProt P51692),inactive: 0
4,STUB1 (UniProt Q9UNE7),inactive: 0
5,TFB2M (UniProt Q9H5Q4),inactive: 0
6,STRN3 (UniProt Q13033),inactive: 0
7,TFDP1 (UniProt Q14186),inactive: 0
8,STK19 (UniProt P49842),inactive: 0
9,TCP11L1 (UniProt Q9NUJ3),inactive: 0
10,SPAG9 (UniProt O60271),inactive: 0
11,TELO2 (UniProt Q9Y4R8),inactive: 0
12,STT3A (UniProt P46977),inactive: 0
13,SPC24 (UniProt Q8NBT2),inactive: 0
14,TADA3L (UniProt O75528),inactive: 0
15,STIP1 (UniProt P31948),inactive: 0
16,SSFA2 (UniProt P28290),inactive: 0
17,SUDS3 (UniProt Q9H7L9),inactive: 0
18,STAM2 (UniProt O75886),inactive: 0
19,STX6 (UniProt O43752),inactive: 0
20,TBC1D9B (UniProt Q66K14),inactive: 0

# Exported tab-delimited: part of the list above.
row	Target	dose-dependent thermal stabilisation call
2	SRGAP2 (UniProt O75044)	inactive: 0
5	ST7 (UniProt Q9NRC1)	inactive: 0
9	STAG1 (UniProt Q8WVM7)	inactive: 0
10	STAMBPL1 (UniProt Q96FJ0)	inactive: 0
14	STK39 (UniProt Q9UEW8)	inactive: 0
15	TBC1D22B (UniProt Q9NU19)	inactive: 0
17	SRI (UniProt P30626)	inactive: 0
1	SOS1 (UniProt Q07889)	inactive: 0
2	SQSTM1 (UniProt Q13501)	inactive: 0
9	TCP11L1 (UniProt Q9NUJ3)	inactive: 0
10	SPAG9 (UniProt O60271)	inactive: 0
